The results in this text go back to paper doi:10.1101/112466.

Amino acid sequences for entries named in this document (tags omitted). A change or cut given only in a name is not applied to a line headed by its entry. Residues count along the entry.
UniProt O95136: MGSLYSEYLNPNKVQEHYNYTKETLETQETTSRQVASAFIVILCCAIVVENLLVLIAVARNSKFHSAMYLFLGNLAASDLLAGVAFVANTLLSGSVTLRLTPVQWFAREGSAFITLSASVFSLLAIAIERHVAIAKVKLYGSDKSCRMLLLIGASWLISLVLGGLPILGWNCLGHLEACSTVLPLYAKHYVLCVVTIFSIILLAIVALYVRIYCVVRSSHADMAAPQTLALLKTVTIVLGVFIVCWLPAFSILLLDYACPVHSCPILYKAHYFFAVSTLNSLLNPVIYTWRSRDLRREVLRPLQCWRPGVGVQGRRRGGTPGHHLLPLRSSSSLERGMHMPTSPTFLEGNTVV
UniProt Q9H228: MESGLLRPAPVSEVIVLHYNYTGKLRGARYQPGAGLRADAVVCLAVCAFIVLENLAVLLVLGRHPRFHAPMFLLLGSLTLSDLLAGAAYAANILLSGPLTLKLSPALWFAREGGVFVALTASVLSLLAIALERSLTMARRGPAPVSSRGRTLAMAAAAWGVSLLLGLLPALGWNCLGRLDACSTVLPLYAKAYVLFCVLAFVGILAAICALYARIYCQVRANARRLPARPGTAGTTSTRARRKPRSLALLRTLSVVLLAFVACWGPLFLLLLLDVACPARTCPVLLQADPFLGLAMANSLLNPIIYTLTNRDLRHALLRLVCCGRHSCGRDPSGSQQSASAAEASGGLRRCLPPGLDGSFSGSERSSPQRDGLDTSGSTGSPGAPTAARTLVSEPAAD
UniProt Q9BXB1, residues 25-951: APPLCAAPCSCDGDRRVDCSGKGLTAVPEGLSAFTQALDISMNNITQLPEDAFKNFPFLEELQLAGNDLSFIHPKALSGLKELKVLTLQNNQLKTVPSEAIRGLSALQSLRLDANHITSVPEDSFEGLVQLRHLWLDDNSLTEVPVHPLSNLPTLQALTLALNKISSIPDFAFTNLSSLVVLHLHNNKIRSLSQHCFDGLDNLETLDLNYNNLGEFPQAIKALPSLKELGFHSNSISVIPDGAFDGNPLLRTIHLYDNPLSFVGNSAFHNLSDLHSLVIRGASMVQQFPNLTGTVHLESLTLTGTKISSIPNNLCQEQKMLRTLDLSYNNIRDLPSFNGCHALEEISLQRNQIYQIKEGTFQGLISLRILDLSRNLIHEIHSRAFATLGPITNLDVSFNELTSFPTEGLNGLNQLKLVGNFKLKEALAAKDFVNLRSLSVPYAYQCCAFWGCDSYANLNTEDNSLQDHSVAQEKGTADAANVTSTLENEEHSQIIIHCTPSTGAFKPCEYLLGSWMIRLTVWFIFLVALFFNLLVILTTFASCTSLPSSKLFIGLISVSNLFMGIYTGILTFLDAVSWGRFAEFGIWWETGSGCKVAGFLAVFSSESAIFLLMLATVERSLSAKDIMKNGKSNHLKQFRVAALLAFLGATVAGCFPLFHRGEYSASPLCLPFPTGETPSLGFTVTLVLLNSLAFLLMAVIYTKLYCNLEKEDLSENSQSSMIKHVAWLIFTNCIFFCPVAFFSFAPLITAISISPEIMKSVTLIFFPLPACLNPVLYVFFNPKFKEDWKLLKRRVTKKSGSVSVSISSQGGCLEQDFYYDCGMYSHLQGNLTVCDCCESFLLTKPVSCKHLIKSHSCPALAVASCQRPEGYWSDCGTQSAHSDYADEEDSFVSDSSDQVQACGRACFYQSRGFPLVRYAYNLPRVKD
UniProt P18825: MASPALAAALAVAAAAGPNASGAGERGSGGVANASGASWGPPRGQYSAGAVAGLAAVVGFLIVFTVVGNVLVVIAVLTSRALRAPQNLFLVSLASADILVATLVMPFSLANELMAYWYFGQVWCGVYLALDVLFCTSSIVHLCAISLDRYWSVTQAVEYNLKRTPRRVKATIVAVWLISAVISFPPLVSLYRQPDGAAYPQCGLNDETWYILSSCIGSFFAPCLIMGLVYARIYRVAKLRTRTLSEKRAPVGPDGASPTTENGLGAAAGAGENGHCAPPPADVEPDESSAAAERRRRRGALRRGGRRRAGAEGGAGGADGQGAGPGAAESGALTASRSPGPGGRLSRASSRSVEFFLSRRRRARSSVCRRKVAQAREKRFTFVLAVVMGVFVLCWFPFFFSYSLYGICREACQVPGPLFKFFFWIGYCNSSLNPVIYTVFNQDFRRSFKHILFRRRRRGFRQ

Results are given in words; binding and its absence hold for the method and conditions named. Binding seen in cells or lysates may run through a third protein. Some results given as binding are weak or reduced against the parent protein; the word gives no strength.

Common to all, as to assay: FRET or BRET
Assay [1] addresses S1P receptor S1P2 (human) (UniProt O95136).
In assay [2] the target is S1P receptor S1P5 (human) (UniProt Q9H228).
The target of assay [3] is leucine-rich repeat containing receptor LGR4 (human) (UniProt Q9BXB1).
The target of assay [4] is α2C-adrenergic receptor (human) (UniProt P18825).

On to “S1P receptor S1P2 (from UniProt O95136 1-353)”, for which the binding result in assay [1] is given as “binds”.
Take “S1P receptor S1P5 (from UniProt Q9H228 1-398)”: the binding entry in assay [2] is reported as “binds”.
Consider “leucine-rich repeat containing receptor LGR4 (from UniProt Q9BXB1 25-951)”, for which the binding entry in assay [3] was “binds”.
Take “α2C-adrenergic receptor (from UniProt P18825 1-462)”: the binding result in assay [4] is listed as “binds”.
